Laboratory results: PubChem BioAssay AID1159584 (Peter MacCallum Cancer Centre, 2016)
Shown is a random part of about 18,000 reagents. Further read-outs or replicates are left out here. Not stated in the record: the amount of reagent, the time to read-out.

- Test: 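Knock-downs that harm CDH1-null cells more than parental MCF10A cells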 (primary screen)
- System: human MCF10A breast epithelial cells, parental and CDH1-null
- Reagents: siRNA against human genes
- Measured: 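Cell viability by CellTiter-Glo ATP luminescence, each line scaled to the mean of mock wells across plates, then CDH1-null over parental ratio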
- Direction: CDH1-null / parental viability ratio: higher = CDH1-null cells survive relatively better than parental; CDH1-null viability vs mock: higher = more viable CDH1-null cells

MAGEB3 scored CDH1-null / parental viability ratio 1.18; CDH1-null viability vs mock (fraction of mock) = 0.9.
With knock-down of ZACN, the record shows CDH1-null / parental viability ratio 1.14; CDH1-null viability vs mock (fraction of mock) = 0.95.
NALF2 showed CDH1-null / parental viability ratio 1.02; CDH1-null viability vs mock (fraction of mock) = 0.82.
AXIN2 gave CDH1-null / parental viability ratio 1.08; CDH1-null viability vs mock (fraction of mock) = 0.82.
With knock-down of RFPL4A, the screen gave CDH1-null / parental viability ratio 1; CDH1-null viability vs mock (fraction of mock) = 0.98.

2 entries from above in another layout:
NALF2
- CDH1-null / parental viability ratio: 1.02
- CDH1-null viability vs mock (fraction of mock): 0.82

AXIN2
- CDH1-null / parental viability ratio: 1.08
- CDH1-null viability vs mock (fraction of mock): 0.82

More results:
Silencing of PTPRN resulted in: CDH1-null / parental viability ratio 1.03; CDH1-null viability vs mock (fraction of mock) = 0.67.
Silencing of ALS2 resulted in: CDH1-null / parental viability ratio 1; CDH1-null viability vs mock (fraction of mock) = 0.66.
C4BPA gave CDH1-null / parental viability ratio 0.99; CDH1-null viability vs mock (fraction of mock) = 0.97.
Against OLFM2, the values are CDH1-null / parental viability ratio 0.76; CDH1-null viability vs mock (fraction of mock) = 0.58.
With knock-down of TIAM2, the screen gave CDH1-null / parental viability ratio 1.03; CDH1-null viability vs mock (fraction of mock) = 0.38.
For SCN3B, the values are CDH1-null / parental viability ratio 1.22; CDH1-null viability vs mock (fraction of mock) = 1.26.
CD34 gave CDH1-null / parental viability ratio 1.01; CDH1-null viability vs mock (fraction of mock) = 0.81.
Against AFM, the values are CDH1-null / parental viability ratio 0.86; CDH1-null viability vs mock (fraction of mock) = 0.62.
Knock-down of SOBP gave: CDH1-null / parental viability ratio 1.45; CDH1-null viability vs mock (fraction of mock) = 0.87.
